Results are given in words; binding and its absence hold for the method and conditions named. In cells and extracts the contact can be indirect. Some results given as binding are weak or reduced against the parent protein; the word gives no strength. Where a sequence is shown, tags or fusion partners need not be part of it.
Biological target: active form of RhoA (GTP-RhoA) (human (endogenous in 16HBE)) (UniProt P61586)
Assay: pull-down; GST-Rhotekin RBD-coated beads (EZ-Detect RhoA Activation Kit) capture GTP-RhoA from lysates of 16HBE cells transfected with Flag-ROCK2(WT or K1007R); ROCK2 found with it by western blot

Amino acid sequences for entries named in this document (tags omitted).
UniProt P61586: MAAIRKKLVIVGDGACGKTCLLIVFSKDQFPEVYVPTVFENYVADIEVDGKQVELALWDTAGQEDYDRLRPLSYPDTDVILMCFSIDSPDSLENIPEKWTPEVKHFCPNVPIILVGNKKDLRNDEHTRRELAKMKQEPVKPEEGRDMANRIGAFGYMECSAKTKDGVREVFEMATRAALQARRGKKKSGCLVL

B1: Flag-ROCK2(K1007R) (enzyme, UniProt O75116 1-1388)
chain: MSRPPPTGKMPGAPETAPGDGAGASRQRKLEALIRDPRSPINVESLLDGLNSLVLDLDFPALRKNKNIDNFLNRYEKIVKKIRGLQMKAEDYDVVKVIGRGAFGEVQLVRHKASQKVYAMKLLSKFEMIKRSDSAFFWEERDIMAFANSPWVVQLFYAFQDDRYLYMVMEYMPGGDLVNLMSNYDVPEKWAKFYTAEVVLALDAIHSMGLIHRDVKPDNMLLDKHGHLKLADFGTCMKMDETGMVHCDTAVGTPDYISPEVLKSQGGDGFYGRECDWWSVGVFLYEMLVGDTPFYADSLVGTYSKIMDHKNSLCFPEDAEISKHAKNLICAFLTDREVRLGRNGVEEIRQHPFFKNDQWHWDNIRETAAPVVPELSSDIDSSNFDDIEDDKGDVETFPIPKAFVGNQLPFIGFTYYRENLLLSDSPSCRETDSIQSRKNEESQEIQKKLYTLEEHLSNEMQAKEELEQKCKSVNTRLEKTAKELEEEITLRKSVESALRQLEREKALLQHKNAEYQRKADHEADKKRNLENDVNSLKDQLEDLKKRNQNSQISTEKVNQLQRQLDETNALLRTESDTAARLRKTQAESSKQIQQLESNNRDLQDKNCLLETAKLKLEKEFINLQSALESERRDRTHGSEIINDLQGRICGLEEDLKNGKILLAKVELEKRQLQERFTDLEKEKSNMEIDMTYQLKVIQQSLEQEEAEHKATKARLADKNKIYESIEEAKSEAMKEMEKKLLEERTLKQKVENLLLEAEKRCSLLDCDLKQSQQKINELLKQKDVLNEDVRNLTLKIEQETQKRCLTQNDLKMQTQQVNTLKMSEKQLKQENNHLMEMKMNLEKQNAELRKERQDADGQMKELQDQLEAEQYFSTLYKTQVRELKEECEEKTKLGKELQQKKQELQDERDSLAAQLEITLTKADSEQLARSIAEEQYSDLEKEKIMKELEIKEMMARHKQELTEKDATIASLEETNRTLTSDVANLANEKEELNNKLKDVQEQLSRLRDEEISAAAIKAQFEKQLLTERTLKTQAVNKLAEIMNRKEPVKRGNDTDVRRKEKENRKLHMELKSEREKLTQQMIKYQKELNEMQAQIAEESQIRIELQMTLDSKDSDIEQLRSQLQALHIGLDSSSIGSGPGDAEADDGFPESRLEGWLSLPVRNNTKKFGWVKKYVIVSSKKILFYDSEQDKEQSNPYMVLDIDKLFHVRPVTQTDVYRADAKEIPRIFQILYANEGESKKEQEFPVEPVGEKSNYICHKGHEFIPTLYHFPTNCEACMKPLWHMFKPPPALECRRCHIKCHKDHMDKKEEIIAPCKVYYDISTAKNLLLLANSTEEQQKWVSRLVKKIPKKPPAPDPFARSSPRTSMKIQQNQSIRRPSRQLAPNKPS
binding: binds

Reference: paper PMC10314948
